Experiment: peptide synthesis
Settings: coupling step

| Substance | step yield [%] |
| --- | --- |
| Boc-(carba-4-Cl—Ff)-R(Pbf)W—OMe | 98 |
| Boc-YfRW—OCH3 | 95 |
